Assay results published in patent US20130195871A1.
No constants are given. Whether binding was seen depends on the method and setting. Some binding calls cover weakened binding; strength is not graded here.

By UniProt entry, the sequences of proteins in these tests, tags left out. Residues count along the entry.
UniProt Q04912, residues 25-957: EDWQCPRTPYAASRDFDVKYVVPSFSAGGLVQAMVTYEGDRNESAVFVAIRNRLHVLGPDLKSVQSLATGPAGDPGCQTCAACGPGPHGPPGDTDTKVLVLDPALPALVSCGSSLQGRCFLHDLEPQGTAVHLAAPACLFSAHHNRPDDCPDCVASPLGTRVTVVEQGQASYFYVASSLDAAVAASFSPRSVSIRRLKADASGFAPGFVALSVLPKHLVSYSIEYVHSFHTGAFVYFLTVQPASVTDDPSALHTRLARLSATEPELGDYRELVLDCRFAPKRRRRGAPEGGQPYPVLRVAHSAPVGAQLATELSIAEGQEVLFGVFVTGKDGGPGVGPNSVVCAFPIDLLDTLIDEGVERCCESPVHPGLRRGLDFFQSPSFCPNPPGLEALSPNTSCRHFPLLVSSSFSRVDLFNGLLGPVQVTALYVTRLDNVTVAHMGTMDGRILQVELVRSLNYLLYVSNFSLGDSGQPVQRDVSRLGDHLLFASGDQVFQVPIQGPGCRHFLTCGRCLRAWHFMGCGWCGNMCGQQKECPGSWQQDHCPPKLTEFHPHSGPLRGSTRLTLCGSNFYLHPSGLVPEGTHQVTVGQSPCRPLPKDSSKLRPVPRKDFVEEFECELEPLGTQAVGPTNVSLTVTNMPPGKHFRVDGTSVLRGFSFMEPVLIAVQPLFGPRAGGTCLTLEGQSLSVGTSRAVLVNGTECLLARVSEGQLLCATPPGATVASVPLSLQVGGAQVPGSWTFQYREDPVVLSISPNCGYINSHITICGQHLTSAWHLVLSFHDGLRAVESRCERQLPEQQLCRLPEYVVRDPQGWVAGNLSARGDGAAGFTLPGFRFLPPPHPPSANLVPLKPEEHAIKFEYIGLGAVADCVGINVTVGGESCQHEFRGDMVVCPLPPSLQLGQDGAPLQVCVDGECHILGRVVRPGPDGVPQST

Target: Recombinant Human MSP Receptor ECD-His tag (human) (UniProt Q04912)
Assay: SPR (Biacore)

Binder | binding
DVD2336 (bispecific antibody) VH: QVQLQESGPGLVKPSEILSLTCTVSGGSISSHYWSWVRQPPGKGLEWIGYIYYSGSTNYNPSLKSRVTISVDTSKNQFSLNLSSVTAADTAVYYCARIPNYYDRSGYYPGYWYFDLWGRGTLVTVSSASTKGPEVQLVQSGGGLVKPGGSLRLSCAASGFTFSSFAMHWVRQAPGKGLEWISVIDTRGATYYADSVKGRFTISRDNAKNSLYLQMNSLRAEDTAVYYCARLGNFYYGMDVWGQGTTVTVSS VL: QAVLTQPSSLSAPPGASASLTCTLRSGFNVDSYRISWYQQKPGSPPQYLLRYKSDSDKQQGSGVPSRFSGSKDASANAGILLISGLQSEDEADYYCMIWHSSAWVFGGGTKLTVLRQPKAAPEIVLTQSPGTLSVSPGERATLSCRASQSIGSSLHWYQQKPGQAPRLLIKYASQSLSGIPDRFSGSGSGTDFTLTISRLEPEDFAVYYCHQSSRLPHTFGQGTKVEIK | binds
DVD2340 (bispecific antibody) VH: QVQLQESGPGLVKPSEILSLTCTVSGGSISSHYWSWVRQPPGKGLEWIGYIYYSGSTNYNPSLKSRVTISVDTSKNQFSLNLSSVTAADTAVYYCARIPNYYDRSGYYPGYWYFDLWGRGTLVTVSSASTKGPEVQLLESGGGLVQPGGSLRLSCTASGFTFSSYAMNWVRQAPGKGLEWVSAISGSGGTTFYADSVKGRFTISRDNSRTTLYLQMNSLRAEDTAVYYCAKDLGWSDSYYYYYGMDVWGQGTTVTVSS VL: QAVLTQPSSLSAPPGASASLTCTLRSGFNVDSYRISWYQQKPGSPPQYLLRYKSDSDKQQGSGVPSRFSGSKDASANAGILLISGLQSEDEADYYCMIWHSSAWVFGGGTKLTVLRQPKAAPDIQMTQFPSSLSASVGDRVTITCRASQGIRNDLGWYQQKPGKAPKRLIYAASRLHRGVPSRFSGSGSGTEFTLTISSLQPEDFATYYCLQHNSYPCSFGQGTKLEIK | binds
